Test results as given in publication PMC9890231.
No constants are given. Whether binding was seen depends on the method and setting. Some entries that bind do so weakly or less than the wild type.

Experiments:
Assay in all cases: tandem affinity co-purification (HisTrap, Strep-Tactin) + SEC; subunits co-overexpressed in S. cerevisiae; cleared lysate on HisTrap (Brn1-His12), eluted with imidazole; then Strep-Tactin resin (Smc4-StrepII3), eluted with desthiobiotin; then Superose 6; holo-complex and ∆Ycg1 tetramer
[1] = molecular target: T1, Smc4 (SMC subunit of budding yeast condensin) (S. cerevisiae) (UniProt Q12267)
T1 sequence: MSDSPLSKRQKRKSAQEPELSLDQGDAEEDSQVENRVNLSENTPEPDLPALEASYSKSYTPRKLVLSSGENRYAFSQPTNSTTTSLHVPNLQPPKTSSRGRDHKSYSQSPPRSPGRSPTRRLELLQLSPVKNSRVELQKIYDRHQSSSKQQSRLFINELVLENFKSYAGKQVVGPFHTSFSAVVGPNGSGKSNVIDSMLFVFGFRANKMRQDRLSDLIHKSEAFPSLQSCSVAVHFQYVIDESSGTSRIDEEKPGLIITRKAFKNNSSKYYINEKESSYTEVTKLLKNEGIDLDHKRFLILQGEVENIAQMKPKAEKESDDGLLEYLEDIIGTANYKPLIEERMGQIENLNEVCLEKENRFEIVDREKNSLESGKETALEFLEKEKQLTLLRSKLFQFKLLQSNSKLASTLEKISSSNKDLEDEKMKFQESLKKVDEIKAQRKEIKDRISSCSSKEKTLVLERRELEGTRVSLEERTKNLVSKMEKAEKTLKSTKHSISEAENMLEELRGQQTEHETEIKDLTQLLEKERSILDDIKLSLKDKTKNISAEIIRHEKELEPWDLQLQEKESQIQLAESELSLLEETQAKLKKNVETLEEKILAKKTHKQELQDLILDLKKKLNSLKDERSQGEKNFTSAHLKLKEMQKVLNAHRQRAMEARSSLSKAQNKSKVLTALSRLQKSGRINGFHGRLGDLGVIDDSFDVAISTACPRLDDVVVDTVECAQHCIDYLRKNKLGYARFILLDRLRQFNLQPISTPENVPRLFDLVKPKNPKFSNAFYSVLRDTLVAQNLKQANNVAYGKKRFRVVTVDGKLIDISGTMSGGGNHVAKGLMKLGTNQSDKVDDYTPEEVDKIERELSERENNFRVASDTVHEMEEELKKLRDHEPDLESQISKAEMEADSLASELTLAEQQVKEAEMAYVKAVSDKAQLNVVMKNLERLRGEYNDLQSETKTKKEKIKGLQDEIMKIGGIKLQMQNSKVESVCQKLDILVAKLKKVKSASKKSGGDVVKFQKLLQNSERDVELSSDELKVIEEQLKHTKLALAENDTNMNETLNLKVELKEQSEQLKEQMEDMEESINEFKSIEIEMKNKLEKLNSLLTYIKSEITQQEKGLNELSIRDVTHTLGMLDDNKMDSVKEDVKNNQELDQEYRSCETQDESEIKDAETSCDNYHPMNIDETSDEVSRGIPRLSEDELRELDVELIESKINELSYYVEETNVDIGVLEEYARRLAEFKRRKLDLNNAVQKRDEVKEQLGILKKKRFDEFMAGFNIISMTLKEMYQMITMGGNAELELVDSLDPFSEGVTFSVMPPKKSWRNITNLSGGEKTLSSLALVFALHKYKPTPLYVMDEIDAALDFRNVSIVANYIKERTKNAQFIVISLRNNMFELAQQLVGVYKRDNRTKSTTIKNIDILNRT

[2] = molecular target: T2, Brn1 (kleisin subunit of budding yeast condensin) (S. cerevisiae) (UniProt P38170)
T2 sequence: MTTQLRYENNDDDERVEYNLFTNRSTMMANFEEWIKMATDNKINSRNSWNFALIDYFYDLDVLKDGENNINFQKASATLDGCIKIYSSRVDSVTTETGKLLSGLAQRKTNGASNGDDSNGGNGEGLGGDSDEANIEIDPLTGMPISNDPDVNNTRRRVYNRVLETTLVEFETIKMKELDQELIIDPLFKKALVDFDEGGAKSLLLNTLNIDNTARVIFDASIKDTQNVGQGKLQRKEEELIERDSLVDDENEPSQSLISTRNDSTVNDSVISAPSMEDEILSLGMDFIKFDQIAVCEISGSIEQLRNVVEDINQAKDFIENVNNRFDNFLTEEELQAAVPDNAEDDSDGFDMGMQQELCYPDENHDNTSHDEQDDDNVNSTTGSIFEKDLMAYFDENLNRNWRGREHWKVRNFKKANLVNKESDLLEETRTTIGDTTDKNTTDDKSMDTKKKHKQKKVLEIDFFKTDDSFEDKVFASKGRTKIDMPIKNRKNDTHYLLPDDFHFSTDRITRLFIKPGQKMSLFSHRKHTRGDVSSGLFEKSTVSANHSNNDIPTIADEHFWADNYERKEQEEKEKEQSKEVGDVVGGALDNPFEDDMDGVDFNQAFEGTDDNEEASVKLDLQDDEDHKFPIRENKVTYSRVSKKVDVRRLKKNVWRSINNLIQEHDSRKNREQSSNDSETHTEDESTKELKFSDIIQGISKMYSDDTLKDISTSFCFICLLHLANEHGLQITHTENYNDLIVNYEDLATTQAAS

[3] = molecular target: T3, Smc4 (SMC subunit of budding yeast condensin) (S. cerevisiae), Q12267; settings: remark: other sources report otherwise
T3 chain: T1 sequence

B1: Ycs4 (HAWK subunit of budding yeast condensin) (protein, UniProt Q06156 1-1176)
chain: MSGFSLSEYLTKFQTTDRESYPRLQDPSRELNVIIDQLAVSPEQIDASPDSLEALIDLCHDFPHLTPKLQTQLSYLISSSLSNLSKDIKANLSSNVNFTEIGGLIPQWKRHLEEYGYLIQVLLTFLQDELHKVSSQSTNLNRSAKNSKNDSANVELFKRDCNQMENLLESITKLLEINLSKIFQTTPEKDLFIGLFTRPLFVLLEIEPVTKVSSLKMFIQRILAMCVKNHGQSSSIQSSLMTNLTYFLHLSVFNAELLKLLNDEYNYPQLTEDILKEISTRVFNAKDTTGPKAISNFLIKLSELSPGIMLRQMNLVITLLNNSSITLRCSVVEACGNIVAELAQDPQTMEHYKQQIAVLIELLEERFQDSNPYVRTKAIQGCSKICDLSSKFNKSKAKFTSLAVRSLQDRSSLVRRNSVKLLSKLLLKHPFKAIHGSQLRLSEWEEYLKGSESQLNSTLKKVESQETLNDTIERSLIEEEVEQDEGQCRTELEGSFNKSAELSRIENEVENINATNTSVLMKLKLMIVYYKDAISFIKEIHKSIELISNLLFSKNRNEVLESMDFLVLADAFDIELSEFGIKKMLHLVWMKGTNDEGTSISVHLIECYKQLFLTAPDSCNMQEKAAHIAKNLINLSIGASIADLASLEQLLGMMYEQKLIDQHVINILWAIYNSASKASMQKEQNVNNRDSEKGFSKEQIHGSIIILGMLSLADNEIALKGLESLLNIGLGAVGLKDLTLCRYSCLALERMVPKRSTIITKAINQELEDVAVKKLYAIIINYTKDNEYYPMCEQALSALFTISSKPDILATDLIREKTMMTFGKPEEEDSILSLEQSSRVVSLSQLLFIVGQVAIKTLVYLEKCEAEFKKRKIEAETRNGKVKNQGADVTNTTQDNGGDKELEMIGGTNEDDFTDAIQFVKENELLFGEKSILGKFCPIVEEIVSNSSRFSDPMLQRTATLCLEKLMCLSSKYCEKSLPLLITVMEKSPDPTIRSNAVLGLGDMAVCFNNLVDENTDYLYRRLHDENLMVQRTCLMTVTFLILAGQVKVKGQLGEMAKCLDNPDQGISDMCRLFFTELASKDNAIYNGFIDIFSNLSSDDLLGKESFKKIIKFLLTFIDKERHQKQLNEKLVGRLRKCETQKQWDDIAFVLNNLPYKNEDVTALLEQGFKVVSAKE
B1 was tested, and the binding [1] was “binds” and the binding [2] was “binds”.

B2: Ycg1 (HAWK subunit of budding yeast condensin), Q06680 1-1035 (protein)
chain: MQDPDGIDINTKIFNSVAEVFQKAQGSYAGHRKHIAVLKKIQSKAVEQGYEDAFNFWFDKLVTKILPLKKNEIIGDRIVKLVAAFIASLERELILAKKQNYKLTNDEEGIFSRFVDQFIRHVLRGVESPDKNVRFRVLQLLAVIMDNIGEIDESLFNLLILSLNKRIYDREPTVRIQAVFCLTKFQDEEQTEHLTELSDNEENFEATRTLVASIQNDPSAEVRRAAMLNLINDNNTRPYILERARDVNIVNRRLVYSRILKSMGRKCFDDIEPHIFDQLIEWGLEDRELSVRNACKRLIAHDWLNALDGDLIELLEKLDVSRSSVCVKAIEALFQSRPDILSKIKFPESIWKDFTVEIAFLFRAIYLYCLDNNITEMLEENFPEASKLSEHLNHYILLRYHHNDISNDSQSHFDYNTLEFIIEQLSIAAERYDYSDEVGRRSMLTVVRNMLALTTLSEPLIKIGIRVMKSLSINEKDFVTMAIEIINDIRDDDIEKQEQEEKIKSKKINRRNETSVDEEDENGTHNDEVNEDEEDDNISSFHSAVENLVQGNGNVSESDIINNLPPEKEASSATIVLCLTRSSYMLELVNTPLTENILIASLMDTLITPAVRNTAPNIRELGVKNLGLCCLLDVKLAIDNMYILGMCVSKGNASLKYIALQVIVDIFSVHGNTVVDGEGKVDSISLHKIFYKVLKNNGLPECQVIAAEGLCKLFLADVFTDDDLFETLVLSYFSPINSSNEALVQAFAFCIPVYCFSHPAHQQRMSRTAADILLRLCVLWDDLQSSVIPEVDREAMLKPNIIFQQLLFWTDPRNLVNQTGSTKKDTVQLTFLIDVLKIYAQIEKKEIKKMIITNINAIFLSSEQDYSTLKELLEYSDDIAENDNLDNVSKNALDKLRNNLNSLIEEINERSETQTKDENNTANDQYSSILGNSFNKSSNDTIEHAADITDGNNTELTKTTVNISAVDNTTEQSNSRKRTRSEAEQIDTSKNLENMSIQDTSTVAKNVSFVLPDEKSDAMSIDEEDKDSESFSEVC
With B2 the binding [3] was “binds”.
